Some entries share one result that the patent states for a list of compounds.
Legend:
Type in all cases: in vivo
active anaphylaxis = experiment: rat active anaphylaxis model (inhibition of paw edema); conditions: rat active anaphylaxis model and/or rat dermal vascular permeability test; in words
serotonin = experiment: rat dermal vascular permeability test (mediator-release model), serotonin challenge; conditions: intradermal injection of serotonin in rats; in words
histamine = experiment: rat dermal vascular permeability test (mediator-release model), histamine challenge; conditions: intradermal injection of histamine in rats; in words
bradykinin = experiment: rat dermal vascular permeability test (mediator-release model), bradykinin challenge; conditions: intradermal injection of bradykinin in rats; in words

Row | Structure (SMILES) | anti-allergy activity; inhibit mediator release from sensitized rat mast cells (active anaphylaxis) | inhibit wheal formation and flare reactions, serotonin (serotonin) | inhibit wheal formation and flare reactions, histamine (histamine) | inhibit wheal formation and flare reactions, bradykinin (bradykinin)
1 | CCOC(=O)C1=C(O)COC1=Nc1ccccc1 [Example 1, potassium 2,5-dihydro-3-ethoxycarbonyl-2-(phenylimino)-4-furanyloxide] | active | inhibit wheal formation and flare reactions | inhibit wheal formation and flare reactions | inhibit wheal formation and flare reactions
2 | CCOC(=O)C1=C(O)COC1=Nc1ccc(C(C)=O)cc1 [Example 3, potassium 2,5-dihydro-3-ethoxycarbonyl-2-[(4-acetylphenyl)imino]-4-furanyloxide] | active | inhibit wheal formation and flare reactions | inhibit wheal formation and flare reactions | inhibit wheal formation and flare reactions
3 | CCOC(=O)C1=C(O)COC1=Nc1ccccc1OC [Example 5, potassium 2,5-dihydro-3-ethoxycarbonyl-2-[(2-methoxyphenyl)imino]-4-furanyloxide] | active | inhibit wheal formation and flare reactions | inhibit wheal formation and flare reactions | inhibit wheal formation and flare reactions
4 | CCOC(=O)C1=C(O)COC1=Nc1cccc([N+](=O)[O-])c1 [Example 4, potassium 2,5-dihydro-3-ethoxycarbonyl-2-[(3-nitrophenyl)imino]-4-furanyloxide] | active | inhibit wheal formation and flare reactions | inhibit wheal formation and flare reactions | inhibit wheal formation and flare reactions
5 | CCOC(=O)C1=C(O)COC1=Nc1ccc(Br)cc1 [Example 6, potassium 2,5-dihydro-3-ethoxycarbonyl-2-[(4-bromophenyl)imino]-4-furanyloxide] | active | inhibit wheal formation and flare reactions | inhibit wheal formation and flare reactions | inhibit wheal formation and flare reactions
6 | CCOC(=O)C1=C(O)COC1=Nc1cccc(C)c1 [Example 2, potassium 2,5-dihydro-3-ethoxycarbonyl-2-[(3-methylphenyl)imino]-4-furanyloxide] | active | inhibit wheal formation and flare reactions | inhibit wheal formation and flare reactions | inhibit wheal formation and flare reactions

Source: patent US4730063A, “Alkali metal 2,5-dihydro-3-ethoxycarbonyl-2-[(substituted phenyl)amino]-4-furanyloxides” (Pennwalt Corportion, priority 1986, dated 1988)
